Consider 107 sequences from PubChem BioAssay AID1347426 (Functional Genomics Laboratory (NCATS/FGL), 2020).

Hit rate of the full screen: of about 31,000 sequences, about 1,400 (4.5%) were called active.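 How the source made its calls: active means median seed-adjusted z-score above 1 or below -1; inactive means the rest.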 The list shows a part of the results.

The experiment is described as follows: Novel Modifiers of Survival Motor Neuron (SMN) Protein: Gene Identification via Genome-wide siRNA Screen. To be noted: HEK293T SMN2-luciferase reporter, siRNA knockdown, 72 h; actives lie on both sides. The method, boiled down:
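Each of three siRNAs per gene is reverse-transfected (1 pmol) into reporter HEK293T cells whose luciferase output tracks SMN protein level. After 72 h culture, ONE-Glo luminescence is control-normalized, log10-transformed and MAD-standardized; Common Seed Analysis deprioritizes seed-driven hits.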
Background: A reporter such as luciferase makes a cellular process visible.
With CCAACGAAGCCGUCUUUUUTT against NONO, the median seed-adjusted z-score is inactive: 0.555.

Take CGUAAUCUGAUGAUCGAUATT against CADM1: the median seed-adjusted z-score was inactive: 0.419.

With GGAAGGAAGAGGAACCGGATT against ZNF688, the median seed-adjusted z-score is inactive: -0.475.

With CCAUUGCUACCAAGACUUUTT against B4GALNT2, the median seed-adjusted z-score is inactive: -0.174.

For GGACAUUUCAUGAGUCAUUTT against 8-Mar, the median seed-adjusted z-score is inactive: -0.106.

In the case of GUAUGGUCGUGUGAGGAAATT against KHK, the median seed-adjusted z-score was inactive: 0.

Turning to AGGGAUGGAUGCAAACUUUTT against LILRB1, the median seed-adjusted z-score is inactive: 0.539.

In the case of GCAUGGUGUUCUUCCUAAUTT against SLC38A3, the median seed-adjusted z-score was inactive: -0.177.

In the case of GGCUCAUGAUGGACAUGAUTT against CANX, the median seed-adjusted z-score is inactive: 0.471.

As for GGCAAAUAGUGAGUCAGAATT against HBP1, the median seed-adjusted z-score is inactive: -0.117.

On to GGUCCUUCUAUACCGCUUATT against QSOX1, for which the median seed-adjusted z-score is inactive: -0.154.

Turning to GGAGAUGUAAAGUCAAAGATT against COPB1, the median seed-adjusted z-score was inactive: -0.839.

Turning to GGCUCAAGACAGUCCUGAATT against TMEM8, the median seed-adjusted z-score is inactive: -0.551.

Regarding CCGUAGAUGCAAUAUAUCATT against OSBPL9, the median seed-adjusted z-score is inactive: -0.958.

CCAAUAUUGUUAAGAAUGATT against PSMAL: the median seed-adjusted z-score is inactive: 0.525.

Take GGACAAUUCGGGAAAUUGUTT against VAX2: the median seed-adjusted z-score was inactive: -0.71.

On to GGAUGAGACUUUGAGACUATT against PRDX1, for which the median seed-adjusted z-score was inactive: 0.288.

With GUGCUUCUGGGUGAAGUCATT against SLC25A41, the median seed-adjusted z-score is inactive: 0.0703.

On to GGAUCUAAUGAACGGAACATT against SIRPA, for which the median seed-adjusted z-score is inactive: -0.153.

In the case of CGGAGAAGAUGUUCGCCGATT against SIL1, the median seed-adjusted z-score is inactive: 0.0292.

For AGAUCUGCGUUGAAAUGGATT against ARHGAP4, the median seed-adjusted z-score was inactive: 0.784.

On to CGUUCUGUCUGGUGAUGUUTT against OTOG, for which the median seed-adjusted z-score is inactive: -0.344.

As to GGGAAGCUGUUCGACUAUUTT against CYC1, the median seed-adjusted z-score was inactive: -0.47.

With CAAACCUAACUAUACAUAATT against ZNF107, the median seed-adjusted z-score was inactive: 0.0761.

As for CCAGGCAAAUGUAAGAAUATT against PDLIM5, the median seed-adjusted z-score is inactive: 0.439.

Turning to CCAUCUAGAGUAUCACGCATT against CYGB, the median seed-adjusted z-score was inactive: -0.34.

Regarding CGUUCAGACAUACCGAAAATT against ELOVL2, the median seed-adjusted z-score was inactive: -0.456.

In the case of GCAACAUGGGAAUUAUGAATT against SP1, the median seed-adjusted z-score was inactive: 0.544.

Take CCCUCAAGCUGUUAACAGATT against ACMSD: the median seed-adjusted z-score is inactive: 0.

As for CAGUGGAUGUUAUUCCUCATT against RNF128, the median seed-adjusted z-score is inactive: -0.377.

As for UCUUCGAGCAAGAAACUAATT against CD9, the median seed-adjusted z-score was active: -1.02.

Turning to CACCUCUGGCUAACCCAUATT against ASGR2, the median seed-adjusted z-score is inactive: 0.0772.

For GGAUCAAGGCUAUGUGGAUTT against CYB5R1, the median seed-adjusted z-score was inactive: 0.

With GCCUUAUUUCUAUACUGGATT against TRIM60, the median seed-adjusted z-score was inactive: -0.201.

For GCAUGUCAUCGAUGGAGAATT against PA2G4, the median seed-adjusted z-score was inactive: -0.803.

AGACAUGUCAUUCAAGUUUTT against TPO: the median seed-adjusted z-score was inactive: 0.894.

Regarding GGCUAUGUGCGGGAGUAUATT against PI4KA, the median seed-adjusted z-score is inactive: 0.

GUAGGAUUGUUUAGUGUAATT against CACNA1D: the median seed-adjusted z-score is inactive: -0.0856.

As for GUAUAUCUGAUGAAGGAUATT against DDX10, the median seed-adjusted z-score was inactive: -0.968.

As for GGACAAGAUUUGACUUAAATT against WTIP, the median seed-adjusted z-score is inactive: 0.222.

Take GCUUCAUUGAUUACCCAAATT against PLAU: the median seed-adjusted z-score was inactive: 0.0765.

In the case of CCAGUUCAGUGCAAAGACATT against ZNF441, the median seed-adjusted z-score was inactive: 0.578.

GGACUAUUCUUGAUAAGAATT against PTER: the median seed-adjusted z-score is inactive: 0.75.

For GCUCCGCAAUUUCUACAGATT against HECW1, the median seed-adjusted z-score was inactive: -0.878.

With CCGUAGCCGUGAAGAUGCUTT against FGFR3, the median seed-adjusted z-score was inactive: -0.133.

GCAUGAAUCUUACUGUCCATT against ZFP2: the median seed-adjusted z-score is inactive: 0.

As for GGUUAGACUUCUUAUGGAATT against ADCY2, the median seed-adjusted z-score is inactive: 0.173.

CCGGAGAAGUUCAACAGCATT against DGKA: the median seed-adjusted z-score was active: -1.36.

With CCUCGGCUCCAGCAAAUCATT against CACNB1, the median seed-adjusted z-score is inactive: 0.225.

Turning to GCUCCUAGCUUACCUCAUATT against CLINT1, the median seed-adjusted z-score was inactive: 0.332.

With GCAGCUCGGCUCAAACUUATT against NOTO, the median seed-adjusted z-score is inactive: -0.193.

On to CAUUCGACAUAGAAGAGUUTT against ZNF551, for which the median seed-adjusted z-score was inactive: -0.171.

Consider CAUCCACCUUGGACCACCATT against FCRLB, for which the median seed-adjusted z-score was inactive: -0.00684.

CGAUGGACCUUGAAAUCUUTT against UEVLD: the median seed-adjusted z-score was inactive: -0.0682.

Regarding GGUGCAUCGUGGGAAAGAATT against RNF121, the median seed-adjusted z-score was inactive: -0.53.

Take GAGACCUAAUGUUUCAUAUTT against PRKCI: the median seed-adjusted z-score was inactive: 0.386.

Regarding CACUAACUGGUGUUAGGUATT against RBL2, the median seed-adjusted z-score is inactive: 0.0211.

Regarding GCUAUGAAGUGGACUGGAATT against SLC22A1, the median seed-adjusted z-score is inactive: -0.637.

As for GGAUGGUAUAUGGACAAGATT against ALG9, the median seed-adjusted z-score was inactive: -0.267.

For GAAGUGUCUCCUGACCCUATT against GATA2, the median seed-adjusted z-score was inactive: 0.623.

Turning to GCACGUCACUUACAAUGCUTT against KCNN2, the median seed-adjusted z-score is inactive: -0.0251.

Regarding GGAGGUGUUUUGUUCGGAUTT against SV2C, the median seed-adjusted z-score was inactive: 0.183.

Take CCUCCAUACCAACAGCAAATT against SNX11: the median seed-adjusted z-score is inactive: 0.00451.

For the sequence GGAUUACCUGUUACAAGAATT against PCLO, the median seed-adjusted z-score was inactive: -0.734.

As for CAAGGAUUGUGGUUAUGGATT against EDA2R, the median seed-adjusted z-score is inactive: 0.424.

As for UGUGGGAUUUGUGCAAUAATT against GPR172B, the median seed-adjusted z-score was inactive: 0.184.

As to GCUGAACAAGGGUUAUUGATT against ZFX, the median seed-adjusted z-score is inactive: -0.581.

In the case of GUGCUAAUCUCAAUACCGATT against ZRANB1, the median seed-adjusted z-score is inactive: -0.347.

On to GGCGGUCGUUCAAAGUCAATT against ZNF275, for which the median seed-adjusted z-score was inactive: 0.315.

As for GCAUAUACCGGACAAUCCATT against MTO1, the median seed-adjusted z-score was inactive: -0.0252.

Take AUGAUAAGGUGGUACUGAATT against BMP4: the median seed-adjusted z-score was inactive: -0.612.

Take GUUUUAUACACUACAGUAATT against RCBTB2: the median seed-adjusted z-score was inactive: 0.235.

As to GGAUAAGGAAUAUCAUUCATT against DNAJC9, the median seed-adjusted z-score was inactive: 0.0545.

As for AAUGGAACCUGUAAGUGUATT against GCN5L2, the median seed-adjusted z-score was inactive: 0.013.

As for GCUUGACUGAGGAAGCUCATT against ZNF648, the median seed-adjusted z-score was inactive: -0.000686.

In the case of CAAGUAUGAUCAGCAAUGATT against ENG, the median seed-adjusted z-score is inactive: -0.254.

For GAGUCACUUCUAAUAAACATT against FOLR2, the median seed-adjusted z-score is inactive: -0.0835.

CCACGUCACCAGUACUAUATT against UBA1: the median seed-adjusted z-score was active: 1.34.

With CCAAAAAGCGCAAACUGGATT against LMNA, the median seed-adjusted z-score is inactive: -0.409.

GAAGCUUCAUUCCAUUAUATT against ARSK: the median seed-adjusted z-score is inactive: -0.00229.

GAAUCGCAAGGAUAUGAUATT against MSH2: the median seed-adjusted z-score is inactive: 0.

AAUUAUACCCAGCACUGUATT against RNASE6: the median seed-adjusted z-score was inactive: 0.832.

For the sequence CAACAUUACCUGUCAUAUATT against CCNB1, the median seed-adjusted z-score is inactive: 0.163.

Take AGACCGUCUUCAUUACCUATT against HTR3C: the median seed-adjusted z-score is inactive: -0.221.

Regarding CCAACUCCUCUAUCCAAGATT against WFDC10A, the median seed-adjusted z-score was inactive: -0.439.

Take GGACAUAUGAGUCAAAGGATT against CTSF: the median seed-adjusted z-score was inactive: 0.161.

For the sequence GAAACCUGCUGAUCUACGATT against CREB3L2, the median seed-adjusted z-score was inactive: -0.192.

For the sequence GAUAUGACCGCGAAACCAATT against RPA4, the median seed-adjusted z-score was inactive: 0.132.

GUAUCACCUGGGUAGGAAATT against DNAJC5G: the median seed-adjusted z-score is inactive: 0.0656.

For the sequence CACAGAAAAGUUACCUUUUTT against PRDX6, the median seed-adjusted z-score was inactive: -0.0302.

Regarding GGAUGUCACAUGUACUUCATT against SDCCAG10, the median seed-adjusted z-score is inactive: -0.465.

In the case of ACACCUACAUGAUGACGCATT against EVX2, the median seed-adjusted z-score was inactive: 0.181.

For the sequence GAAGUACGUGAAACCAAAATT against RPN1, the median seed-adjusted z-score was inactive: -0.375.

Turning to ACAGUCUUCUUUUGAGAUATT against YAP1, the median seed-adjusted z-score was inactive: -0.247.

For CAAAGACCUUUGUCGGAUATT against ATP6V1A, the median seed-adjusted z-score was inactive: -0.0106.

For the sequence AGUGGUAGAUUUAGAAGAATT against XBP1, the median seed-adjusted z-score is inactive: 0.387.

As for GAGCUAUAAAUUGCACAAATT against PPA2, the median seed-adjusted z-score was inactive: -0.497.

With GAAACAUCUGGUGCUAUUATT against KREMEN2, the median seed-adjusted z-score is inactive: -0.0883.

On to AUCAAGUCUUCUUACAAGATT against VDAC2, for which the median seed-adjusted z-score was inactive: 0.648.

On to GGAAGAAAACAGUGCCUAUTT against CA9, for which the median seed-adjusted z-score was inactive: 0.0833.

Take GAUUUACCCUCCGACCAUATT against SLC1A3: the median seed-adjusted z-score was inactive: -0.421.

For the sequence GCUUUACUACAGUAUAAGATT against FKBP4, the median seed-adjusted z-score was inactive: 0.283.

As to GAAUUGCUGAUAAACCUAUTT against SMNDC1, the median seed-adjusted z-score is active: -1.54.

For the sequence CAGUUUAGGUCUCAAGGCATT against PPP2R5E, the median seed-adjusted z-score was inactive: 0.421.

For GGCUAUUGGUCGUACCUUUTT against CPS1, the median seed-adjusted z-score was inactive: -0.247.

As for AGUACAGCCUGGUCAAGAATT against S100A16, the median seed-adjusted z-score is inactive: 0.24.

With CCAUUGGACCAACACUAUATT against PARP2, the median seed-adjusted z-score was inactive: -0.366.
